From PubChem BioAssay AID256 (DTP/NCI, 2004)
The list shows only some results of the screen, not a fair sample: it is rich in T/C values a quarter to a half above the control, in often repeated tests (any T/C) and in doses without a T/C. Other doses and runs of a compound stand elsewhere. T/C gives the treated animals as a percentage of the vehicle group. Some doses have a count of surviving animals in place of a T/C: the source files T/C as zero there, which appears to mark a toxic dose or a test without result, not a measured value. Some doses without a T/C left all or most animals alive at the check, yet need not have been tolerated: survival well below the control is almost never listed, so the zero probably covers shortened survival too. Counts of survivors are from the toxicity check (mostly the fifth day) where no day follows; animals may have died later. Schedules are NCI's codes, taken here to give the interval after Q, in days (D) or hours (H), and the number of doses after X. Some entries were tested several times; their values stand side by side, smallest first. For survival time, this PubChem deposit counts one and a half times the control or more as active, and values a quarter to a half above the control carry no call in these data; other NCI protocols may use other cut-offs. Brackets with × stand for listed records that agree.

Test system: CD2F1 mice, L1210 leukemia ip, survival T/C
Assay: NCI In Vivo Anticancer Drug Screen. Data for tumor model L1210 Leukemia (intraperitoneal) in CD2F1 (CDF1) mice
Conditions: higher T/C = longer survival
Method in brief: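 Tumor-bearing mice (transplanted tumor) were split into treated and vehicle control groups, and the measured endpoint of each treated group was divided by that of its vehicle controls.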

[1] = T/C endpoint: mean survival time, dose: 400.0 mg/kg/injection, schedule: Q04DX003 (ip), vehicle: saline with Tween-80
[2] = T/C endpoint: mean survival time, dose: 200.0 mg/kg/injection, schedule: Q01DX009 (ip), vehicle: saline with Tween-80
[3] = T/C endpoint: median survival time, dose: 80.0 mg/kg/injection, schedule: Q04DX002 (ip), vehicle: water

CNC(=O)Oc1cccn(C(=O)NC)c1=O was tested, and the survivor count (T/C endpoint: mean survival time, dose: 100.0 mg/kg/injection, schedule: Q01DX009 (ip), vehicle: saline) was 2 of 6, the survivor count (T/C endpoint: mean survival time, dose: 150.0 mg/kg/injection, schedule: Q01DX009 (ip), vehicle: Klucel (hydroxypropylcellulose) (HPC)) was 2 of 6 and the survivor count (T/C endpoint: mean survival time, dose: 150.0 mg/kg/injection, schedule: Q01DX009 (ip), vehicle: saline) was 2 of 6. The survivor count (T/C endpoint: mean survival time, dose: 200.0 mg/kg/injection, schedule: Q01DX009 (ip), vehicle: Klucel (hydroxypropylcellulose) (HPC)) was 0 of 6, the survivor count (T/C endpoint: mean survival time, dose: 200.0 mg/kg/injection, schedule: Q01DX009 (ip), vehicle: saline) was 0 of 6 and the survivor count (T/C endpoint: mean survival time, dose: 300.0 mg/kg/injection, schedule: Q01DX009 (ip), vehicle: Klucel (hydroxypropylcellulose) (HPC)) was 0 of 6. For the same molecule, the survivor count (T/C endpoint: mean survival time, dose: 300.0 mg/kg/injection, schedule: Q01DX009 (ip), vehicle: saline) was 0 of 6.

With [Cl][Pt+2][Cl].[NH-]c1cccc(I)c1.[NH-]c1cccc(I)c1 the survivor count (T/C endpoint: mean survival time, dose: 200.0 mg/kg/injection, schedule: Q04DX003 (ip), vehicle: distilled water + Tween-80) was 5 of 6.

For C[S+](C)CC(C)(C)CI, the survivor count (T/C endpoint: mean survival time, dose: 200.0 mg/kg/injection, schedule: Q01DX001 (ip), vehicle: saline) was 1 of 3 and the survivor count (T/C endpoint: mean survival time, dose: 400.0 mg/kg/injection, schedule: Q01DX001 (ip), vehicle: saline) was 0 of 3.

For COc1ccc(N=C2C=CC(=O)O2)cc1, the survivor count (T/C endpoint: mean survival time, dose: 200.0 mg/kg/injection, schedule: Q04DX003 (ip), vehicle: saline with Tween-80) was 1 of 6 and the survivor count [1] was 3 of 6.

With NC(=O)NNC(=O)C(Cl)(Cl)Cl the survivor count (T/C endpoint: mean survival time, dose: 200.0 mg/kg/injection, schedule: Q04DX002 (ip), vehicle: saline) was 2 of 3 and the survivor count (T/C endpoint: mean survival time, dose: 400.0 mg/kg/injection, schedule: Q04DX002 (ip), vehicle: saline) was 0 of 3.

O=C(O)C1CCCCC1C(=O)O.[NH-]C1CCCCC1[NH-].[Pt+2] (stereo not drawn) was tested, and the T/C (T/C endpoint: mean survival time, dose: 25.0 mg/kg/injection, schedule: Q04DX003 (ip), vehicle: other) was 127 % of control and the T/C (T/C endpoint: mean survival time, dose: 50.0 mg/kg/injection, schedule: Q04DX003 (ip), vehicle: other) was 132 % of control.

With Nc1nc(N)c2nc(NCc3ccc(C(=O)NC(CCC(=O)O)C(=O)O)cc3)cnc2n1 (stereo not drawn) the T/C (T/C endpoint: mean survival time, dose: 400.0 mg/kg/injection, schedule: Q01DX009 (ip), vehicle: saline) was 128 % of control.

For CC12CCC(OC3CCCCO3)CC1=CCC1C2CCC2(C)C1CCC2(O)CCN (stereo not drawn), the survivor count (T/C endpoint: mean survival time, dose: 25.0 mg/kg/injection, schedule: Q01DX005 (ip), vehicle: other) was 6 of 6, the survivor count (T/C endpoint: mean survival time, dose: 50.0 mg/kg/injection, schedule: Q01DX005 (ip), vehicle: other) was 1 of 6 and the survivor count (T/C endpoint: mean survival time, dose: 100.0 mg/kg/injection, schedule: Q01DX005 (ip), vehicle: other) was 0 of 6. The survivor count (T/C endpoint: mean survival time, dose: 125.0 mg/kg/injection, schedule: Q01DX001 (ip), vehicle: Klucel (hydroxypropylcellulose) (HPC)) was 2 of 4 and the survivor count (T/C endpoint: mean survival time, dose: 250.0 mg/kg/injection, schedule: Q01DX001 (ip), vehicle: Klucel (hydroxypropylcellulose) (HPC)) was 0 of 4.

With COc1cc2c(cc1OC)C(OC)N(C)c1c-2ccc2cc3c(cc12)OCO3 (stereo not drawn) the survivor count (T/C endpoint: mean survival time, dose: 50.0 mg/kg/injection, schedule: Q01DX009 (ip), vehicle: water) was 2 of 6.

Cc1cc(C)c(C)c(S(=O)(=O)O)c1C was tested, and the survivor count [2] was 2 of 6 and the survivor count [1] was 2 of 6.

For CS/C([S-])=N/[NH-].CS/C([S-])=N/[NH-].[Pd], the survivor count (T/C endpoint: mean survival time, dose: 50.0 mg/kg/injection, schedule: Q01DX009 (ip), vehicle: saline with Tween-80) was 1 of 6, the survivor count (T/C endpoint: mean survival time, dose: 100.0 mg/kg/injection, schedule: Q01DX009 (ip), vehicle: saline with Tween-80) was 0 of 6 and the survivor count [2] was 2 of 6. The survivor count (T/C endpoint: mean survival time, dose: 400.0 mg/kg/injection, schedule: Q01DX001 (ip), vehicle: saline with Tween-80) was 0 of 6.

With CC[C@](O)(C(=O)O)c1cc2n(c(=O)c1CO)Cc1cc3ccccc3nc1-2 the T/C (T/C endpoint: mean survival time, dose: 8.0 mg/kg/injection, schedule: Q04DX003 (ip), vehicle: water) was 130 % of control, the T/C (T/C endpoint: mean survival time, dose: 12.5 mg/kg/injection, schedule: Q04DX003 (ip), vehicle: water) was 140 and 149 % of control and the T/C (T/C endpoint: mean survival time, dose: 25.0 mg/kg/injection, schedule: Q04DX003 (ip), vehicle: water) was 131 % of control. The T/C (T/C endpoint: mean survival time, dose: 50.0 mg/kg/injection, schedule: Q04DX003 (ip), vehicle: water) was 141 % of control, the survivor count (T/C endpoint: mean survival time, dose: 100.0 mg/kg/injection, schedule: Q04DX003 (ip), vehicle: water) was 3 of 6 and 4 of 6 and the T/C (T/C endpoint: median survival time, dose: 3.75 mg/kg/injection, schedule: Q04HX004 (iv), vehicle: dextrose) was 126 % of control. The T/C (T/C endpoint: median survival time, dose: 3.75 mg/kg/injection, schedule: Q04HX004 (iv), vehicle: other) was 131 % of control, the T/C (T/C endpoint: median survival time, dose: 3.75 mg/kg/injection, schedule: Q04HX004 (iv), vehicle: water) was 148 % of control and the T/C (T/C endpoint: median survival time, dose: 6.25 mg/kg/injection, schedule: Q04HX004 (iv), vehicle: saline) was 144 % of control. For the same molecule, the T/C (T/C endpoint: median survival time, dose: 7.5 mg/kg/injection, schedule: Q04HX004 (iv), vehicle: dextrose) was 149 % of control, the T/C (T/C endpoint: median survival time, dose: 10.0 mg/kg/injection, schedule: Q04DX002 (ip), vehicle: water) was 126, 128 (2×), 133, 134, 137 % of control and the T/C (T/C endpoint: median survival time, dose: 10.0 mg/kg/injection, schedule: Q04DX002 (iv), vehicle: water) was 134 % of control. For the same molecule, the T/C (T/C endpoint: median survival time, dose: 12.5 mg/kg/injection, schedule: Q04DX002 (ip), vehicle: water) was 131 and 134 % of control, the T/C (T/C endpoint: median survival time, dose: 20.0 mg/kg/injection, schedule: Q04DX002 (ip), vehicle: water) was 142, 153, 160, 161, 167, 179 % of control and the T/C (T/C endpoint: median survival time, dose: 20.0 mg/kg/injection, schedule: Q04DX002 (iv), vehicle: water) was 146 % of control. For the same molecule, the T/C (T/C endpoint: median survival time, dose: 40.0 mg/kg/injection, schedule: Q04DX002 (ip), vehicle: water) was 175, 177, 178, 181, 202, 215 % of control, the T/C (T/C endpoint: median survival time, dose: 50.0 mg/kg/injection, schedule: Q04DX003 (ip), vehicle: clinical formulation) was 125 % of control and the T/C [3] was 110, 204, 208, 215, 303 % of control. For the same molecule, the survivor count [3] was 6 of 6 and the survivor count (T/C endpoint: median survival time, dose: 100.0 mg/kg/injection, schedule: Q04DX003 (ip), vehicle: clinical formulation) was 5 of 10.

C=C1c2cccc(O)c2C(O)=C2C(=O)[C@]3(O)C(O)=C(C(N)=O)C(=O)[C@@H](N(C)C)[C@@H]3[C@@H](O)[C@H]12 was tested, and the survivor count (T/C endpoint: median survival time, dose: 200.0 mg/kg/injection, schedule: Q01DX009 (ip), vehicle: Klucel (hydroxypropylcellulose) (HPC)) was 5 of 6.

In the case of CCn1c2[n+](c3ccccc31)CCC2, the survivor count (T/C endpoint: mean survival time, dose: 75.0 mg/kg/injection, schedule: Q01DX001 (ip), vehicle: saline) is reported as 2 of 6, the survivor count (T/C endpoint: mean survival time, dose: 150.0 mg/kg/injection, schedule: Q01DX001 (ip), vehicle: saline) is reported as 0 of 6 and the survivor count (T/C endpoint: mean survival time, dose: 300.0 mg/kg/injection, schedule: Q01DX001 (ip), vehicle: saline) is reported as 2 of 6.
